This note sets out measurements from article PMC4200421, “A distinct tethering step is vital for vacuole membrane fusion” (eLife, 2014).

The assay deals with T1, Vam3p (vacuolar Qa-SNARE), on 3Q-SNARE proteoliposomes (S. cerevisiae) (UniProt Q12241).
T1 sequence: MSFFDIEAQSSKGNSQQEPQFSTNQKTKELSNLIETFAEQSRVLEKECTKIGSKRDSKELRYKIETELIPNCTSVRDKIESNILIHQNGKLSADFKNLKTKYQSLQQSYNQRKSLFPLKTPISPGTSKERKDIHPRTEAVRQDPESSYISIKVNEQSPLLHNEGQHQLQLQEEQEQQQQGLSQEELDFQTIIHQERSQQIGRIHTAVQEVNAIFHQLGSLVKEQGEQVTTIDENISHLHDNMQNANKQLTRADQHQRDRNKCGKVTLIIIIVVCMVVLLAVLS
Briefly: co-IP; association of Nyv1p with 3Q-SNAREs after detergent solubilisation (RIPA buffer); co-IP with anti-Vam3p carried out with increasing concentrations of GST-Nyv1p; immunoblot with anti-Nyv1p; both purified. A general note: A western blot detects proteins with antibodies after separation by electrophoresis.

No constants are given. Whether binding was seen depends on the method and setting. Some binding calls cover weakened binding; strength is not graded here. Where a sequence is shown, tags or fusion partners need not be part of it.

B1: GST-His6-3Csite-Nyv1p (protein, UniProt Q12255 1-253)
chain: MKRFNVSYVEVIKNGETISSCFQPFQKNENYGTITSANEQITPVIFHNLIMDMVLPKVVPIKGNKVTKMSMNLIDGFDCFYSTDDHDPKTVYVCFTLVDMPKILPIRILSGLQEYESNATNELLSSHVGQILDSFHEELVEYRNQTLNSSGNGQSSNGNGQNTISDIGDATEDQIKDVIQIMNDNIDKFLERQERVSLLVDKTSQLNSSSNKFRRKAVNIKEIMWWQKVKNITLLTFTIILFVSAAFMFFYLW
As for B1, the binding entry is on record as “binds”.
